The target of the test is T1, endogenous Mic60 (human (endogenous in THP-1)) (UniProt Q16891).
T1 sequence: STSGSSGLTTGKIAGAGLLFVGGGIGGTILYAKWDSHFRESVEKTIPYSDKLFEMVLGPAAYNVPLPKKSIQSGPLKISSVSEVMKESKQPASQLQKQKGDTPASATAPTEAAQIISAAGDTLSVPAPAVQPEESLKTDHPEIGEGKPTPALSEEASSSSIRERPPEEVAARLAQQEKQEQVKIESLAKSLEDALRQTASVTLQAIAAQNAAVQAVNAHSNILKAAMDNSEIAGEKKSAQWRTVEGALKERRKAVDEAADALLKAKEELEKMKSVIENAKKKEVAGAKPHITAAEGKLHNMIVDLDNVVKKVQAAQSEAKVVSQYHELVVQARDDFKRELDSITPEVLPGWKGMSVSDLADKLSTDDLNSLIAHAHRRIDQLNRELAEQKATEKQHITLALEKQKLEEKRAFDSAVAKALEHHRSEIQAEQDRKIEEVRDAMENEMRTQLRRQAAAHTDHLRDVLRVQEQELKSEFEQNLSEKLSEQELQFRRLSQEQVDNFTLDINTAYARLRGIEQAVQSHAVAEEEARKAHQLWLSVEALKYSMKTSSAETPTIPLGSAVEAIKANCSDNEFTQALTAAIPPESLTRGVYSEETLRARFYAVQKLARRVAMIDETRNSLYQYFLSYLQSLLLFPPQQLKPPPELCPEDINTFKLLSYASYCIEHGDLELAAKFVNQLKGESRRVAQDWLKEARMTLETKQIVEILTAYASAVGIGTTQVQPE
The experiment in a line: co-IP.

Amino acid sequences for entries named in this document (tags omitted). Residues count along the entry.
UniProt P13128, residues 25-529: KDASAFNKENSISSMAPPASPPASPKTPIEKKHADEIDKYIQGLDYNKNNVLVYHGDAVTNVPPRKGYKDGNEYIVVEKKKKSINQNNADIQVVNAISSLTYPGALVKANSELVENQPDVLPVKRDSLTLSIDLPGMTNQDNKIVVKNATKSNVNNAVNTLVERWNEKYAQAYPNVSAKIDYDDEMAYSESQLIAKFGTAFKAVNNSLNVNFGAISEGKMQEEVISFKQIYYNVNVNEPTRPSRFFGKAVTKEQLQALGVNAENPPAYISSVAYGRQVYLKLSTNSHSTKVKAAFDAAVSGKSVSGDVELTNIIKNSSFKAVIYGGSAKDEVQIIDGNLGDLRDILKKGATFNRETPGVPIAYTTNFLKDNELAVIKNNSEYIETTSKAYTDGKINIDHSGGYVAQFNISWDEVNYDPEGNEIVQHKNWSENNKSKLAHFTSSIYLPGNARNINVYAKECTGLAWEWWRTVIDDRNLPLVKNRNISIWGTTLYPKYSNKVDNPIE

These are yes or no findings as the source states them, for the method shown. In cells and extracts the contact can be indirect. Some binding calls cover weakened binding; strength is not graded here.

Consider “LLO produced by L. monocytogenes (from UniProt P13128 25-529)”, for which the binding entry is recorded as “binds”.

Source of the values: publication PMC11633497.
